In patent US20220308045A1, “EXPANDABLE LIVER ORGANOIDS, MEDIA COMPOSITION FOR DIFFERENTIATION THEREOF, AND METHOD FOR PRODUCING LIVER ORGANOIDS USING THE SAME” (KOREA RESEARCH INSTITUTE OF BIOSCIENCE AND BIOTECHNOLOGY, priority 2019, published 2022):

System: CYP3A4

COC(=O)C1=C(C)NC(C)=C(C(=O)OC)C1c1ccccc1[N+](=O)[O-] [nifedipine]
expression amount of CYP3A4 on induction: significantly increased
